No constants are given. Whether binding was seen depends on the method and setting. Binding seen in cells or lysates may run through a third protein. Some binding calls cover weakened binding; strength is not graded here. Where a sequence is shown, tags or fusion partners need not be part of it. One block for each binder: values may come before it.
Assays:
[1] = target: T1, NTRC:YFP-C (Arabidopsis thaliana) (UniProt O22229); test: split reporter; BiFC: YFP-N and YFP-C fusions (pSPYNE-35S, pSPYCE-35S) coexpressed in N. benthamiana leaves by Agrobacterium GV3101 infiltration; confocal imaging of YFP and chlorophyll autofluorescence 3 days after infiltration
T1 sequence: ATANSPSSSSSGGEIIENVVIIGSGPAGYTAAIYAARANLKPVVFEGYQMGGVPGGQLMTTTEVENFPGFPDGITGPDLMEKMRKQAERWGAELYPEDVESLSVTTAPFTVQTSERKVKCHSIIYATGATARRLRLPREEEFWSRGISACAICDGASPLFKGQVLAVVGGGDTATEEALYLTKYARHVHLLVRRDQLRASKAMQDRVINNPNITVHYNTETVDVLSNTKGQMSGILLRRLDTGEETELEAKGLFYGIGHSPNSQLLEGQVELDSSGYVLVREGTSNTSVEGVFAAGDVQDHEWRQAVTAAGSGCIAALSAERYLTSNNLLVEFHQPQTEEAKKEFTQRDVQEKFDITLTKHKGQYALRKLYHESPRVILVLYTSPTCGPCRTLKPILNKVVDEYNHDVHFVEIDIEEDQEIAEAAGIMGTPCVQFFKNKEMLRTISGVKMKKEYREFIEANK

[2] = target: T2, TRX-m1 (BiFC fusion) (Arabidopsis thaliana) (UniProt O48737); test: as above
T2 sequence: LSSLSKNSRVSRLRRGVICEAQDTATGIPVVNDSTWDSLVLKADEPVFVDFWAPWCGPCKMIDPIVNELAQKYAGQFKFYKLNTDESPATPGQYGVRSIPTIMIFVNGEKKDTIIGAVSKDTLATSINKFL

- binding [1]: binds
B1: PGR5 (BiFC fusion) (protein, UniProt Q9SL05 61-133)
chain: KNVNEGKGLFAPLVVVTRNLVGKKRFNQLRGKAIALHSQVITEFCKSIGADAKQRQGLIRLAKKNGERLGFLA

- binding [1]: binds
B2: NdhS (BiFC fusion) (protein, UniProt Q9T0A4 49-250)
chain: AMGKFNLWEVMGGRGLCNGEKGIEKELQRNIEDEQETSKAENNETERESDDSNLSFKVPEDGFEKEMMGLTGGFPGGEKGLKTFIEKNPPPPPPPPPAKQGSDASAVATDKKPKAPKLPLLMPGMIAIVKNQNSPYHMYCGIVQRITDGKAGVLFEGGNWDRLITFRLEELERREKGPPGKNPKSCILEPLIEQMQKEEAAP

- binding [1]: no binding
- binding [2]: binds
B3: PGRL1:YFP-N (protein, UniProt Q8H112 61-324)
chain: ATTEQSGPVGGDNVDSNVLPYCSINKAEKKTIGEMEQEFLQALQSFYYDGKAIMSNEEFDNLKEELMWEGSSVVMLSSDEQRFLEASMAYVSGNPILNDEEYDKLKLKLKIDGSDIVSEGPRCSLRSKKVYSDLAVDYFKMLLLNVPATVVALGLFFFLDDITGFEITYIMELPEPYSFIFTWFAAVPVIVYLALSITKLIIKDFLILKGPCPNCGTENTSFFGTILSISSGGKTNTVKCTNCGTAMVYDSGSRLITLPEGSQA
